Data on two molecules can be found in US20100136030A1 (published 2010).

These are yes or no findings as the source states them, for the method shown. Some binding calls cover weakened binding; strength is not graded here.

Test [1] addresses T1, human OX40 (form used in the assay not stated) (human) (UniProt P43489).
T1 sequence (looked up): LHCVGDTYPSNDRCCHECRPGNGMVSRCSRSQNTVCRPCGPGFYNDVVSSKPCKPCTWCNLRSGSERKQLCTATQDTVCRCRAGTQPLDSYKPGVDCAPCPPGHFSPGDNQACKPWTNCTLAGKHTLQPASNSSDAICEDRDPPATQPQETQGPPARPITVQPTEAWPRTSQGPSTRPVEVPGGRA
Description: OX40 binding assay of FIG. 13.

For test [2], the target named is T1, human OX40 (form used in the assay not stated) (human). Description: competition assay of FIG. 15, format not described.
Test [3] shares this target. Description: OX40 binding titration with OD readout (assay format and form of OX40 not described); x axis 'Log concentration, µg/ml Fab'.
For test [4] the target is unchanged. The test is described as follows: competition assay for OX40 with OD readout; x axis 'fold excess competitor' (no concentration unit); labelled or competed species not described.
The target of test [5] is human OX40 receptor (CD134), full length, on the cell surface (human) (UniProt P43489). Description: flow cytometry, PE-conjugated A10-F on activated CD4+ T-cells. For orientation: A flow cytometer gives signals particle by particle.

B1: humanized anti-OX40 antibody A10(TH)hu336F (antibody, V domains shown)
VH: QVQLVQSGAEVKKPGASVKVSCKASGYTFTSYWMHWVRQAPGQGLEWMGEIHPKSGNSNYNEKFKGRVTMTRDTSTSTVYMELSSLRSEDTAVYYCARGPEYSNFWFAYWGQGTLVTVSS
VL: DIVLTQSPTSLAVSLGQRATISCKASQTVDYDGDSYMHWYQQKPGQPPKLLIYAASNLESGVPDRFSGSGSGTDFTLTISSLQAEDVAVYYCHQSNEDPWTFGQGTKVEIK
notes: also called humanized clone A10(TH)hu336F; 'humanized' A10 molecule
As for B1, the binding result in test [1], in test [2], in test [3] and in test [4] was “binds” in each case.

B2: humanized A10 whole antibody F (A10 LC (TH) hu 336 / A10 humanized) (antibody, V domains shown)
VH: B1 VH
VL: B1 VL
notes: also called A10-F; humanized variant A10-F
In the case of B2, the binding entry in test [5] is reported as “binds”.
